Laboratory results from PMC8416741.
Results are given in words; binding and its absence hold for the method and conditions named. In cells and extracts the contact can be indirect. Some entries that bind do so weakly or less than the wild type.

Amino acid sequences for entries named in this document (tags omitted).
UniProt P51665: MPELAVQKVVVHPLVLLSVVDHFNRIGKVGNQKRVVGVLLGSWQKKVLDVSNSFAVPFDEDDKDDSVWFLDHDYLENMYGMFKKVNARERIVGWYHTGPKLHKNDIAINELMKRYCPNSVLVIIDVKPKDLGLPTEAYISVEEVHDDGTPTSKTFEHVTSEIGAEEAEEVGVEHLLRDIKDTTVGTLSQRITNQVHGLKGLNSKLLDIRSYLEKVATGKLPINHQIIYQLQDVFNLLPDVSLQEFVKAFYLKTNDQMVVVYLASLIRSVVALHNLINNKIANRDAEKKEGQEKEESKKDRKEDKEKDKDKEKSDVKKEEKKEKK
UniProt P54727: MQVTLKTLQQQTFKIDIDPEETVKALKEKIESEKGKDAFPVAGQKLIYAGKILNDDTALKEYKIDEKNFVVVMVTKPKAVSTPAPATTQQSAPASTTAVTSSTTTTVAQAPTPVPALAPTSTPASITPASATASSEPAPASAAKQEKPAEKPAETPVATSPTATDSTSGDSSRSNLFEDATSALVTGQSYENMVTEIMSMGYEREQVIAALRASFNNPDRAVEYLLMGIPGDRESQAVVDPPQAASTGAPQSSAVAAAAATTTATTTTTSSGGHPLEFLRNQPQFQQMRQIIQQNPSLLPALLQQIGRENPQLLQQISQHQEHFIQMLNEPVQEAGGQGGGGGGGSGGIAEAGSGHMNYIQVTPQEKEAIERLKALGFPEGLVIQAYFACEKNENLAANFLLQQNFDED

Biological target: proteasome 26S subunit, non-ATPase 7 (PSMD7) (human (endogenous in AGS)) (UniProt P51665)
Assay: co-IP; GC (AGS) cell lysate in IP buffer with 0.5% NP40; 3 ug anti-PSMD7 and Protein G Sepharose overnight; RAD23B in the precipitate detected by Western blot

Substance: RAD23 homolog B (RAD23B) (from UniProt P54727 1-409)
- binding: binds
